Experimental data: PubChem BioAssay AID1259308 (NCATS, 2017)
In all, the deposit lists about 59,000 reagents; shown is a part drawn at random. About 1,510 of them (2.6%) count as active. 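Calls use total luciferase alone and ignore viability, so some active siRNAs may act by altering cell number.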 A number with no mark means an inactive call. Not all columns of the deposit are shown. Reagent sequences are not shown.

Purpose: 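Knock-downs that increase output of a recombinant reporter protein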 (primary screen)
Cell system: human HEK293 embryonic kidney cells stably expressing firefly luciferase (HEK-CMV-Luc2-Hygro)
Reagents: single siRNA against human genes, 0.8 pmol siRNA per well
Duration: 72 h
Detection: 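Luciferase light (ONE-Glo) measured on one replicate plate set and viability (CellTiter-Glo) on the other, scaled to a negative control siRNA, with robust z-scores and luciferase per cell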
Direction: total luciferase, z-score: higher = more reporter protein produced
Active means: 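Active when the median/MAD z-score for overall luciferase is greater than 3; a gene was taken forward for validation with new siRNAs if at least two of its three siRNAs passed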
Calls: active = raised luciferase; inactive = no rise

total luciferase, z-score, by gene and reagent
ALG10B: SID160758123 0.213; SID160758124 -0.261; SID160758125 0.45
DAD1: SID160752268 0.195; SID160752279 0.708; SID160752290 0.221
UBE2Q1: SID160743838 -0.952; SID160743840 -0.273; SID160743841 0.282
CPAMD8: SID160738465 -0.434; SID160738467 -1.66; SID160738468 -0.494
C17orf58: SID160763116 0.539; SID160763117 -1.54; SID160763118 2.28
IFNA21: SID160733117 -0.406; SID160775587 1.35; SID160775588 1.51
TRIM29: SID160736767 0.169; SID160736768 1.78; SID160736769 -0.584
KCTD7: SID160759458 1.29; SID160759461 0.00887; SID160759462 -1.61

Records listed so far whose gene name begins with A or a:
total luciferase, z-score, by gene and reagent
ALG10B: SID160758123 0.213; SID160758124 -0.261; SID160758125 0.45
